Measured values from patent US20160200831A1.
Results are given in words; binding and its absence hold for the method and conditions named. Some entries that bind do so weakly or less than the wild type. Values belong to the binder of their own block, whether it stands above or below them.

How the values were obtained:
[1] = biological target: glycosylated human PAI-1 (active form) (human) (UniProt P05121); test: SPR, Biacore 2000, single-cycle kinetics, antibody captured on anti-Fc, glycosylated human PAI-1 injected five times
human PAI-1 (human) [2] = biological target: human PAI-1 (human) (UniProt P05121); test: Biacore competition; analyte antibody on PAI-1 captured by immobilized E21 (competitor)
human PAI-1 (human) [3] = biological target: human PAI-1 (human) (UniProt P05121); test: Biacore competition; analyte antibody on PAI-1 captured by immobilized C26 (competitor)
human PAI-1 (human) [4] = biological target: human PAI-1 (human) (UniProt P05121); test: Biacore, hybridoma supernatant
human PAI-1 (human) [5] = biological target: human PAI-1 (human) (UniProt P05121); test: Biacore competition; analyte antibody on PAI-1 captured by immobilized C45 (competitor)
human PAI-1 (human) [6] = biological target: human PAI-1 (human) (UniProt P05121); test: Biacore competition; analyte antibody on PAI-1 captured by immobilized 33H1 (competitor)
human PAI-1 (human) [7] = biological target: human PAI-1 (human) (UniProt P05121); test: Biacore competition; analyte antibody on PAI-1 captured by immobilized 33B8 (competitor)
human PAI-1 (human) [8] = biological target: human PAI-1 (human) (UniProt P05121); test: Biacore competition; analyte antibody on PAI-1 captured by immobilized B109 (competitor)
human PAI-1 (human) [9] = biological target: human PAI-1 (human) (UniProt P05121); test: Biacore competition; analyte antibody on PAI-1 captured by immobilized A75 (competitor)
[10] = biological target: glycosylated human PAI-1 (active form) (human) (UniProt P05121); test: ELISA, hybridoma supernatant
human PAI-1 (human) [11] = biological target: human PAI-1 (human) (UniProt P05121); test: Biacore competition; analyte antibody on PAI-1 captured by immobilized A71 (competitor)
[12] = biological target: human PAI-1 stabilized in active conformation (N150H, K154T, Q319L, M354I) (human) (UniProt P05121); test: X-ray crystal structure of the complex
[13] = biological target: cynomolgus PAI-1 (cynomolgus monkey (Macaca fascicularis)); test: X-ray crystal structure of the complex
human PAI-1 (human) [14] = biological target: human PAI-1 (human) (UniProt P05121); test: preparative size exclusion chromatography of the Fab/PAI-1 mixture with SDS-PAGE inset; the sheet title reads 'His A44 Fab latent Pai1 SEC', the legend says human wt PAI-1
[15] = biological target: cynomolgus PAI-1 (cynomolgus monkey (Macaca fascicularis)); test: HDX MS

binding [1]: binds
B1: APG (antibody, V domains shown)
VH: QVKLQESGPELVKPGASVKISCKASGYSFTDYNMNWVKQSKGKSLEWIGIIHPNSGTTTYNQKFKGKATLTVDQSSSTAYLQLNSLTSEDSAVYYCARSKLRFFDYWGQGTTVTVSS
VL: DIKLTQSPSSMYASLGERVTITCKASQDIYSYLSWFQQKPGKSPKTLIYRANRLIDGVPSRFSGSGSGQDYSLTISSLEYEHMGIYYCLQYDEFPFTFGSGTKLEIK

binding [15]: binds
B4: APGv2 (antibody, V domains shown)
VH: QVQLVQSGSELKKPGASVKVSCKASGYSFTDYNMNWVRQAPGQGLEWIGIIHPNSGTTTYNQKFKGRAVLSVDQSVSTAYLQISSLKAEDTAVYYCARSKLRFFDYWGQGTLVTVSS
VL: DIQLTQSPSSLSASVGDRVTITCKASQDIYSYLSWFQQKPGKAPKTLIYRANRLIDGVPSRFSGSGSGQDYTFTISSLQPEDIATYYCLQYDEFPFTFGQGTKLEIK

The next lines start with the binder.

B2: E16 (antibody, mouse IgG1, V domains shown)
VH: EVKLVESGGGLVKPGGSLKLSCAASGFTFSNYGMSWVRQTPEKGLGWVASLRTGGNTYYSDSVKGRFTISRDNDRNILYLQMSSLTSEDTAVYYCARGLRHWGYFDVWGAGTTVTVSS
VL: DIVMTQSHKFMSTSVGDRVNITCKASQDVSTAVGWYQQEPGQSPKLLIYSASNRHTGVPDRFTGSGSGTDFTFTISSVQAEDLAVYYCQQHYSSPWTFGGGTKLEIK
binding (human PAI-1 (human) [2]): binds | binding (human PAI-1 (human) [3]): binds | binding (human PAI-1 (human) [4]): binds | binding (human PAI-1 (human) [5]): binds | binding (human PAI-1 (human) [6]): binds | binding (human PAI-1 (human) [7]): binds | binding (human PAI-1 (human) [8]): binds | binding (human PAI-1 (human) [9]): binds | binding [10]: binds | binding (human PAI-1 (human) [11]): binds

B3: Fab A44V11 (Fab, V domains shown)
VH: QMTLKESGPTLVKPTQTLSLTCSVSGDSMTNGYWNWIRQFPGKALEYMGYITYSGSTYYNPSLKGRITITRDTSKNQYYLTLSSVTTVDTATYYCARWHYGSPYYFDYWGQGTTLTVSS
VL: DIKMTQSPSSLSASVGDRVTITCKASQDINSYLSWLQQKPGKSPKTLIYRAQRSVEGVPSRFSGSGSGQDYSLTISSLQPEDLGIYYCLQYDEFPPTFGGGTKLEIK
binding [12]: binds | binding [13]: binds | binding (human PAI-1 (human) [14]): binds
